Results deposited as PubChem BioAssay AID652272 (Drosophila RNAi Screening Center, 2013).

Test: 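Genome-wide knock-down search for components of Hedgehog signalling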 (primary screen)
Cells: Drosophila clone 8 (Cl8) cells
Reagent: long dsRNA against Drosophila genes
Detection: 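Firefly light from a Hedgehog-responsive ptc promoter reporter and Renilla reference light, both read on a plate reader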
Direction: firefly Hh reporter signal: higher = more ptc reporter light; Renilla reference signal: higher = more Renilla control light
Active means: 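Hit when the z-score averaged over two replicates is under -2 or over +3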
Calls: active = hit: reporter lowered or raised; inactive = not a hit
The deposit covers about 21,000 reagents; below is a random part of those with a known target gene and a result. Of all reagents, 503 (2.4%) were called active. 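Raw plate light values, not normalised; calls rest on replicate z-scores that were not deposited; hits include reporter decreases as well as increases.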 Unmarked entries are inactive. Not stated in the record: the amount of reagent, the time to read-out.

Against phu [DRSC16390] the deposit lists firefly Hh reporter signal, replicate 1 = 62312; firefly Hh reporter signal, replicate 2 = 1.12e5; Renilla reference signal, replicate 1 = 2322; Renilla reference signal, replicate 2 = 2992. For CG15140 [DRSC02440], the entry reads firefly Hh reporter signal, replicate 1 = 1.02e5; firefly Hh reporter signal, replicate 2 = 64146; Renilla reference signal, replicate 1 = 2320; Renilla reference signal, replicate 2 = 5657. After knock-down of Alg7 [DRSC02833], the screen gave firefly Hh reporter signal, replicate 1 = 1.06e5; firefly Hh reporter signal, replicate 2 = 69386; Renilla reference signal, replicate 1 = 3356; Renilla reference signal, replicate 2 = 2726. Against Alg7 [DRSC02834], the entry reads firefly Hh reporter signal, replicate 1 = 1.04e5; firefly Hh reporter signal, replicate 2 = 47963; Renilla reference signal, replicate 1 = 2848; Renilla reference signal, replicate 2 = 4184. For CG31661 [DRSC00296], the values are firefly Hh reporter signal, replicate 1 = 90509; firefly Hh reporter signal, replicate 2 = 65088; Renilla reference signal, replicate 1 = 2134; Renilla reference signal, replicate 2 = 1632. mRpS14 [DRSC19444] showed firefly Hh reporter signal, replicate 1 = 1.09e5; firefly Hh reporter signal, replicate 2 = 1.48e5; Renilla reference signal, replicate 1 = 4061; Renilla reference signal, replicate 2 = 6311.

Against ppk8 [DRSC17269] the deposit lists firefly Hh reporter signal, replicate 1 = 4.48e5; firefly Hh reporter signal, replicate 2 = 2.24e5; Renilla reference signal, replicate 1 = 25349; Renilla reference signal, replicate 2 = 3460. With knock-down of CG7741 [DRSC07035], the record shows firefly Hh reporter signal, replicate 1 = 1.58e5; firefly Hh reporter signal, replicate 2 = 54480; Renilla reference signal, replicate 1 = 4196; Renilla reference signal, replicate 2 = 4149. Depletion of Ir60e [DRSC04227] came out at: firefly Hh reporter signal, replicate 1 = 83266; firefly Hh reporter signal, replicate 2 = 57670; Renilla reference signal, replicate 1 = 1591; Renilla reference signal, replicate 2 = 4827. For CG10283 [DRSC02034], the values are firefly Hh reporter signal, replicate 1 = 65216; firefly Hh reporter signal, replicate 2 = 68625; Renilla reference signal, replicate 1 = 2684; Renilla reference signal, replicate 2 = 2616. Silencing of Pkcdelta [DRSC19356] gave: firefly Hh reporter signal, replicate 1 = 1.20e5; firefly Hh reporter signal, replicate 2 = 3.84e5; Renilla reference signal, replicate 1 = 5109; Renilla reference signal, replicate 2 = 16315. With knock-down of Pkcdelta [DRSC19399], the screen gave firefly Hh reporter signal, replicate 1 = 1.43e5; firefly Hh reporter signal, replicate 2 = 3.32e5; Renilla reference signal, replicate 1 = 5229; Renilla reference signal, replicate 2 = 13926.
